In article PMC12209456, “Serine/threonine/tyrosine kinase 1 drives pancreatic carcinogenesis via GSK3β sequestration-mediated Wnt/β-catenin pathway hyperactivation” (Signal Transduction and Targeted Therapy, 2025):
Results are given in words; binding and its absence hold for the method and conditions named. In cells and extracts the contact can be indirect. A yes stands for co-enrichment or nearness to the bait. Other partners may have been found. Where a sequence is shown, tags or fusion partners need not be part of it.

Sequences of proteins named here, by UniProt entry; tags and fusion partners are left off.
UniProt P49841: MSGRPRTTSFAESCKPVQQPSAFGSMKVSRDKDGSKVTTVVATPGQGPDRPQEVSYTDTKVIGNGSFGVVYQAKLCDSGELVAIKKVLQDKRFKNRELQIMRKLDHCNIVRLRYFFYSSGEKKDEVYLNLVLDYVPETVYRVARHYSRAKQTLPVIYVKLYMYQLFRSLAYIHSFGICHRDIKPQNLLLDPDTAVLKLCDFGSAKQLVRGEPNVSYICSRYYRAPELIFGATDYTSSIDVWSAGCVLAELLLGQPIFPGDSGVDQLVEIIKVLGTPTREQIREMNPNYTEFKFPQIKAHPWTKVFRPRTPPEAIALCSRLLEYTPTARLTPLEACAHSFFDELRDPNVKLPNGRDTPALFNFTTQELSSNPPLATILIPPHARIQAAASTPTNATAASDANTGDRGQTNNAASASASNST
UniProt P35222: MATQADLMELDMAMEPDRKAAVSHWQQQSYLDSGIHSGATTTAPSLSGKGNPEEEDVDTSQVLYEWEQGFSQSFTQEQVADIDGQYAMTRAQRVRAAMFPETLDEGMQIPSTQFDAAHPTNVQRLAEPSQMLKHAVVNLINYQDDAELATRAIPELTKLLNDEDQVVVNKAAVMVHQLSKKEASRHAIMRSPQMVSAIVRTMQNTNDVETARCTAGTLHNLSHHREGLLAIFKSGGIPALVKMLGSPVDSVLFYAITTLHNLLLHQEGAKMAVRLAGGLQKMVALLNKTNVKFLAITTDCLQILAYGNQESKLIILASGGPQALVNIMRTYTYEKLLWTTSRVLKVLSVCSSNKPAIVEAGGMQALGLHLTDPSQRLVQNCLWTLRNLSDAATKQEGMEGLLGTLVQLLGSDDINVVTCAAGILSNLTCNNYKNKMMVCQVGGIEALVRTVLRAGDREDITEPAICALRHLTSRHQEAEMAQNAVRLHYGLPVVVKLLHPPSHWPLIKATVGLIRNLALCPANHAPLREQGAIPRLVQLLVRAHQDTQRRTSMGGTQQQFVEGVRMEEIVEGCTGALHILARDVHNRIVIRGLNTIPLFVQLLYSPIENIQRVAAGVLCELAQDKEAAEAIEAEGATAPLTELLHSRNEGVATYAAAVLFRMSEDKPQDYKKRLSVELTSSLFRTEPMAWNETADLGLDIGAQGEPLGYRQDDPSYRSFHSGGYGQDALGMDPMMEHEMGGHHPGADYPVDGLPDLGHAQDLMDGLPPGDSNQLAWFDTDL

Biological target: T1, Flag-tagged STYK1 (UniProt Q6J9G0)
T1 sequence: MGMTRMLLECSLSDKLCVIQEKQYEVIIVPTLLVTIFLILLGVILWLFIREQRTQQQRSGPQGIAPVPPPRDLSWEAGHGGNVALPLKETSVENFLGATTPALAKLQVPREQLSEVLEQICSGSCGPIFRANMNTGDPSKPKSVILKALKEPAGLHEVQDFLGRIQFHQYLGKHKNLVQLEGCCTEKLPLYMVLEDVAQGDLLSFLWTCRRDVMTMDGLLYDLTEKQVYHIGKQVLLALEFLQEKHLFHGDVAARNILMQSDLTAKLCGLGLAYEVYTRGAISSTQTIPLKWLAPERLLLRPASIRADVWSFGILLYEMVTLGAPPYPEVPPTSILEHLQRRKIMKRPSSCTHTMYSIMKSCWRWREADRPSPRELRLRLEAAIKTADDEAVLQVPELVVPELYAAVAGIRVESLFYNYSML
Assay: affinity purification with mass spectrometry; Flag-affinity purification of STYK1-associated complexes from transfected HEK293T cells, silver staining, LC-MS/MS

| binding | Substance |
| --- | --- |
| binds | Glycogen synthase kinase 3β (GSK3β), endogenous (from UniProt P49841 1-420) |
| binds | β-catenin, endogenous (from UniProt P35222 1-781) |
